Values from PubChem BioAssay AID1259328 (Drosophila RNAi Screening Center, 2017).
The deposit covers 95 reagents; shown is an unselected part. 6 of all reagents (6.3%) were called active. 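Only two distinct z-score sets exist; calls follow set 1, and set 2 holds one inactive gene scoring above 1.5.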 Unmarked entries are inactive. A plus sign joins genes that one reagent is predicted to hit. Reagent sequences are not shown. Not given: the amount of reagent.

Aim: 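Knock-downs that change cellular ATP after exposure to high zinc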
Cell system: Drosophila S2R+ cells
Knock-down reagent: long dsRNA against Drosophila genes
Duration: 5 days (4 days knock-down, then 1 day metal)
Treatment: zinc chloride added to 15 mM final for 1 day
Measured: 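ATP luminescence per well as a viability signal, measured after 4 days of knock-down and 1 day of 15 mM zinc chloride, reported as mean z-score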
Direction: ATP z-score, averaged: higher = more ATP, more viable cells under zinc
Hit rule: 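a gene counts as active if its set 1 mean z-score lies outside the range -1.5 to 1.5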

gene knocked down | dsRNA | ATP z-score, averaged, set 1 | ATP z-score, averaged, set 2
Alk | DRSC23342 | -0.382 | -0.545
Alk | DRSC33404 | -0.365 | -0.496
Alk | DRSC36973 | -0.0307 | -0.474
ATP7 | DRSC19819 | 0.0991 | 0.08
ATP7 | DRSC39460 | 0.0903 | -0.192
Sod1 | DRSC11286 | -0.176 | -0.372
Sod1 | DRSC40766 | -0.142 | -0.47
CG6006 | DRSC13137 | -0.475 | -0.246
CG6006 | DRSC15946 | 0.101 | -0.313
Vha16-1 | DRSC05020 | 0.618 | 0.769
Vha16-1 | DRSC32229 | 0.0444 | 0.43
Ctr1A | DRSC40310 | 0.285 | 0.322
Ctr1A | DRSC40902 | 0.605 | 0.594
Nhe2 | DRSC03172 | -0.179 | -0.0928
Nhe2 | DRSC03377 | -0.316 | -0.188
SERCA | DRSC04600 | -0.0896 | -0.131
SERCA | DRSC26195 | 0.0749 | 0.572
Orct | DRSC16777 | -0.436 | -0.33
Orct | DRSC25574 | -0.526 | -0.402
Zip99C | DRSC16320 | -0.487 | -0.339
Zip99C | DRSC40024 | -0.401 | -0.0938
p38a | DRSC36706 | -0.139 | -0.397
p38a | DRSC37322 | -0.189 | -0.163
Syx5 | DRSC03432 | 0.46 | 0.0739
Syx5 | DRSC40872 | 0.512 | 0.376
MFS14 | DRSC06524 | 0.012 | -0.281
MFS14 | DRSC39753 | 1.16 | 0.88
Lnk | DRSC16729 | -0.528 | -0.689
Lnk | DRSC31005 | -0.41 | -0.294

Records above whose gene name begins with L or l (2):
gene knocked down | dsRNA | ATP z-score, averaged, set 1 | ATP z-score, averaged, set 2
Lnk | DRSC16729 | -0.528 | -0.689
Lnk | DRSC31005 | -0.41 | -0.294

The list goes on.
gene knocked down | dsRNA | ATP z-score, averaged, set 1 | ATP z-score, averaged, set 2
MtnA | DRSC21588 | -0.388 | 0.202
CG16890 + p38b | DRSC36755 | -0.365 | -0.0894
CG7536 | DRSC20050 | -0.477 | -0.304
CG7536 | DRSC39596 | -0.317 | -0.319
foi | DRSC29596 | 2.4 (active) | 2.59
foi | DRSC35740 | -0.0497 | -0.277
Rbcn-3A | DRSC18314 | 0.491 | -0.0117
Rbcn-3A | DRSC28199 | -0.0301 | -0.179
Sod2 | DRSC07554 | -0.0283 | -0.15
Sod2 | DRSC27050 | -0.427 | -0.23
anne | DRSC29952 | 4.21 (active) | 3.92
anne | DRSC40853 | 4.86 (active) | 4.72
mTor | DRSC02811 | 1.38 | 1.78
mTor | DRSC40810 | 1.47 | 1.48
SPoCk | DRSC11844 | -0.263 | -0.17
SPoCk | DRSC24007 | -0.657 | -0.266
ZnT63C | DRSC23528 | -0.57 | -0.236
ZnT63C | DRSC37698 | -0.294 | -0.22
Catsup | DRSC03288 | -0.324 | 0.0394
Catsup | DRSC25727 | -0.373 | -0.669
Catsup | DRSC40427 | -0.308 | 0.0488
ZnT86D | DRSC16091 | -0.625 | -0.353
ZnT86D | DRSC40064 | 0.657 | 0.371
Sac1 | DRSC34470 | -0.437 | -0.0885
Sac1 | DRSC34471 | -0.357 | -0.282
rl | DRSC31395 | 0.00317 | -0.397
rl | DRSC31396 | 0.156 | 0.0433
Cdc50 | DRSC20224 | -0.0609 | -0.33
